{"source": "PubChem BioAssay AID1347423", "about": "(Functional Genomics Laboratory (NCATS/FGL), 2020)", "note": "Screen size: about 52,000 sequences; about 210 (0.4%) were called active.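 Rule for the calls: active = gene whose silencing raises cell survival under the drug, median off-target-corrected z-score across its silencing RNAs 2 or more; inactive = the rest.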 The list shows a part of the results."}
{"experiment": "Resistance to Poly (ADP-Ribose) Polymerase inhibitor: Gene Identification via Genome-wide siRNA Screen", "conditions": "mouse BRCA2 R2336H ES cells, olaparib, CellTiter-Glo viability; hits give high values", "how_it_was_run": "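Genome-wide siRNA screen (3 siRNAs/gene, 20 nM) in mouse ES cells carrying hypomorphic BRCA2 R2336H; olaparib 500 nM added 48 h post-transfection, CellTiter-Glo viability 72 h later. Normalized to plate-median negative control; MAD z-scores, gene median, seed-adjusted.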"}
{"sequence": "CGAUUUCUGCUCCUCAUUUTT against 9130019O22Rik", "z-score": "inactive: 1.96"}
{"sequence": "GUUUCCGGUCAGAGUGUGATT against Stard10", "z-score": "inactive: -1.78"}
{"sequence": "GGCAAGUGGCUCUUUGGUGTT against Cysltr1", "z-score": "inactive: 0.535"}
{"sequence": "GGACAAAGAAAAUACGAAATT against Olfr593", "z-score": "inactive: 0.121"}
{"sequence": "GGUUGAGUAGUUGAUUUUCTT against Hemgn", "z-score": "inactive: 0.915"}
{"sequence": "GCAAGCUAUCAGGUGCAGUTT against Rnpepl1", "z-score": "inactive: -0.707"}
{"sequence": "GGGUAAACCUCUCUUGUUATT against Hs3st3a", "z-score": "inactive: 1.06"}
{"sequence": "GCCUUUGUUAAUGUUCGCUTT against H28", "z-score": "inactive: 0.488"}
{"sequence": "GGUGGCACGAUGCUAUGUUTT against Gpr109b", "z-score": "inactive: -1.86"}
{"sequence": "CGAGAGAGUGUUACCAUCGTT against Prkcn", "z-score": "inactive: 1.44"}
{"sequence": "GAACUGACUUCACAUAAAGTT against Nrtn", "z-score": "inactive: 1.09"}
{"sequence": "GGAGAGAACUUGUUCAUGATT against 4833432P19Rik", "z-score": "inactive: -0.896"}
{"sequence": "CCUAUACCUUGGACUUCCGTT against 1700018O18Rik", "z-score": "inactive: 2.13"}
{"sequence": "CCACCCUAAUCCAUUUUUGTT against BC053917", "z-score": "inactive: 0.0441"}
{"sequence": "GGAUACCUUCCUCUUACACTT against Bloc1s3", "z-score": "inactive: -0.356"}
{"sequence": "GCCAGUGGUGCUAGCAGAUTT against Mtnr1a", "z-score": "inactive: -0.707"}
{"sequence": "GGGCAUGAAUGGUUACUUATT against Mllt6", "z-score": "inactive: 1.46"}
{"sequence": "CGACCAGACACGGAAUGUATT against Mbnl1", "z-score": "inactive: -2.68"}
{"sequence": "GGCCAUACGCAAGCUCAAGTT against 6430402L03Rik", "z-score": "inactive: -2.18"}
{"sequence": "CCAGUCUCCGCCUCAGUAATT against Gm720", "z-score": "inactive: 0.171"}
{"sequence": "GGAUUUUUAUGAUAGUGACTT against Slc4a1ap", "z-score": "inactive: 0.172"}
{"sequence": "GCAUUUGUACAUUGUGACUTT against Gm503", "z-score": "inactive: -0.893"}
{"sequence": "CGCUAGCUUAUUUUCCGCCTT against Dirc2", "z-score": "inactive: 0.274"}
{"sequence": "GCCAUGAAGCUAAAUAAUCTT against Optn", "z-score": "inactive: -0.261"}
{"sequence": "GGGUGUAUUACCUCUCUCUTT against Pygl", "z-score": "inactive: 0.595"}
{"sequence": "GGAGAAAAGGAAGUUGAGGTT against Bnip3l", "z-score": "inactive: 1.23"}
{"sequence": "CGUAAAGCUUCCUGUGUCUTT against 5230400J09Rik", "z-score": "inactive: -0.343"}
{"sequence": "GGUGCACAAUUGACAACCGTT against Hnt", "z-score": "inactive: 0.128"}
{"sequence": "GGCCUAAUUUGAAUAACACTT against 4933436I01Rik", "z-score": "inactive: -0.322"}
{"sequence": "GCCCAACCUGUAUUGGAUCTT against Icosl", "z-score": "inactive: -0.114"}
{"sequence": "GCAGAAAGAAUGACAUUCCTT against Cfc1", "z-score": "inactive: -1.15"}
{"sequence": "GGCAACUUGUUCCAGCAAUTT against Pdcd8", "z-score": "inactive: -0.674"}
{"sequence": "GGGACUGGCACCAUUUGUUTT against Cetn4", "z-score": "inactive: -1.05"}
{"sequence": "GGAGAUCGACGCGUGUAUCTT against 2700029E10Rik", "z-score": "inactive: 0.406"}
{"sequence": "GGGUCAGAACACGUACGAGTT against Gnaz", "z-score": "inactive: 1.12"}
{"sequence": "CGCCGUUGGUUUGCCAGAATT against Defb40", "z-score": "inactive: -1.28"}
{"sequence": "GGCAAAACUCACACUUACUTT against Poldip2", "z-score": "inactive: 0.372"}
{"sequence": "GGUUAAUGAUAAGAACCCATT against Hgs", "z-score": "inactive: -0.759"}
{"sequence": "GGUGAAGACUGGAACAAGATT against A930012M17", "z-score": "inactive: -0.699"}
{"sequence": "GGUUGAUGCAUCAUUCCUATT against Adamts1", "z-score": "inactive: 2.17"}
{"sequence": "CCAUCUCCCUACUAGGUUGTT against Olfr49", "z-score": "inactive: 0.136"}
{"sequence": "GGCUACCAAGUUUCAUCAUTT against Tbx22", "z-score": "inactive: 1.61"}
{"sequence": "CCUAAUCUAGAGCAACACATT against B230218L05Rik", "z-score": "inactive: 0.327"}
{"sequence": "CGGAUACCUAGAGUGCAUCTT against Zfp42", "z-score": "inactive: 0.0634"}
{"sequence": "GCUAGCCAGUGCAUUCACATT against Srp68", "z-score": "inactive: -1.82"}
{"sequence": "GGAUAUGUGAAAUGCAUUGTT against Asb9", "z-score": "inactive: -0.173"}
{"sequence": "GCUAAAACCCGUUACUUCCTT against Gsta4", "z-score": "inactive: 0.385"}
{"sequence": "GGAAGGAAGUGGAAAUGAGTT against 2700008N14Rik", "z-score": "inactive: -0.0328"}
{"sequence": "GGAGCGAGGUACAACUGAATT against A430031N04", "z-score": "inactive: -2.35"}
{"sequence": "GGUAAAAGAAGCUCUAAAGTT against Olfr449", "z-score": "inactive: 0.259"}
{"sequence": "GCCAUGUGUAUGGUAGUCUTT against Olfr1247", "z-score": "inactive: -0.818"}
{"sequence": "CCUAUCUGGCUUCUGUUAATT against Bin1", "z-score": "inactive: -0.399"}
{"sequence": "GGUGGUUACCAUCUUACUUTT against Trhr", "z-score": "inactive: 2.04"}
{"sequence": "AGACCUUGAGAACAUUCUUTT against Nkx2-6", "z-score": "inactive: -1.74"}
{"sequence": "GGAUCUCGAAGUUACUGCATT against Dnajc5b", "z-score": "inactive: -0.0865"}
{"sequence": "GGACAAAGAGUGAAGCCAGTT against Reg4", "z-score": "inactive: -0.505"}
{"sequence": "GGUCUUUGCUACCAACCUGTT against Fignl1", "z-score": "inactive: 2.12"}
{"sequence": "CCAGUAGUAUUUAUUGCUUTT against Tcf7l2", "z-score": "inactive: 1.36"}
{"sequence": "GGAAAUUGCUAUUGCUUCATT against Olfr837", "z-score": "inactive: 0.086"}
{"sequence": "GGCCGUGAUCUUGGAAUAUTT against Pop4", "z-score": "inactive: -0.0988"}
{"sequence": "GCUCUUUGGUCGAGAACCATT against Mup5", "z-score": "inactive: -0.139"}
{"sequence": "GCCUUGGUAUGUUUCUAUUTT against 9330158F14Rik", "z-score": "inactive: 2.88"}
{"sequence": "GGUGAUGGUGUAUGUUGCUTT against Olfr309", "z-score": "inactive: 1.38"}
{"sequence": "GGGAAGUCUGGACAAUAUGTT against C79127", "z-score": "inactive: -1.14"}
{"sequence": "GAUGGUCAUUGAUGUCCUUTT against Rps24", "z-score": "inactive: -2.95"}
{"sequence": "GGACAUUUCUUCUGUUACCTT against A330049M08Rik", "z-score": "inactive: 0.133"}
